These results are taken from article PMC10486081.

Protein sequences, listed by entry. Tags and fused reporters are not part of them.
UniProt O43791: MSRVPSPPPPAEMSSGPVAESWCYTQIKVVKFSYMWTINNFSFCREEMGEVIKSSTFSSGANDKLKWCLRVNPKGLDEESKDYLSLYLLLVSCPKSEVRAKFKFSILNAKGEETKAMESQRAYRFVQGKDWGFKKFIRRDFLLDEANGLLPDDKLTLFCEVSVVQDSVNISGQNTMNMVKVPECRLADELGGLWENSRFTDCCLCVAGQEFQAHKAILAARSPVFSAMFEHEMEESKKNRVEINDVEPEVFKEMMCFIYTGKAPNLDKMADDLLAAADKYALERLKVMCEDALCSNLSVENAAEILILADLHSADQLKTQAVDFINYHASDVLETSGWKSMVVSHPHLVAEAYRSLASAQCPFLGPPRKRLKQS

Results are given in words; binding and its absence hold for the method and conditions named. Binding seen in cells or lysates may run through a third protein. Some entries that bind do so weakly or less than the wild type. For part of these data: Sequences can lack the tags named with a protein.

The target of experiment [1] is T1, Flag-LATS1, wild type (UniProt O95835).
T1 sequence: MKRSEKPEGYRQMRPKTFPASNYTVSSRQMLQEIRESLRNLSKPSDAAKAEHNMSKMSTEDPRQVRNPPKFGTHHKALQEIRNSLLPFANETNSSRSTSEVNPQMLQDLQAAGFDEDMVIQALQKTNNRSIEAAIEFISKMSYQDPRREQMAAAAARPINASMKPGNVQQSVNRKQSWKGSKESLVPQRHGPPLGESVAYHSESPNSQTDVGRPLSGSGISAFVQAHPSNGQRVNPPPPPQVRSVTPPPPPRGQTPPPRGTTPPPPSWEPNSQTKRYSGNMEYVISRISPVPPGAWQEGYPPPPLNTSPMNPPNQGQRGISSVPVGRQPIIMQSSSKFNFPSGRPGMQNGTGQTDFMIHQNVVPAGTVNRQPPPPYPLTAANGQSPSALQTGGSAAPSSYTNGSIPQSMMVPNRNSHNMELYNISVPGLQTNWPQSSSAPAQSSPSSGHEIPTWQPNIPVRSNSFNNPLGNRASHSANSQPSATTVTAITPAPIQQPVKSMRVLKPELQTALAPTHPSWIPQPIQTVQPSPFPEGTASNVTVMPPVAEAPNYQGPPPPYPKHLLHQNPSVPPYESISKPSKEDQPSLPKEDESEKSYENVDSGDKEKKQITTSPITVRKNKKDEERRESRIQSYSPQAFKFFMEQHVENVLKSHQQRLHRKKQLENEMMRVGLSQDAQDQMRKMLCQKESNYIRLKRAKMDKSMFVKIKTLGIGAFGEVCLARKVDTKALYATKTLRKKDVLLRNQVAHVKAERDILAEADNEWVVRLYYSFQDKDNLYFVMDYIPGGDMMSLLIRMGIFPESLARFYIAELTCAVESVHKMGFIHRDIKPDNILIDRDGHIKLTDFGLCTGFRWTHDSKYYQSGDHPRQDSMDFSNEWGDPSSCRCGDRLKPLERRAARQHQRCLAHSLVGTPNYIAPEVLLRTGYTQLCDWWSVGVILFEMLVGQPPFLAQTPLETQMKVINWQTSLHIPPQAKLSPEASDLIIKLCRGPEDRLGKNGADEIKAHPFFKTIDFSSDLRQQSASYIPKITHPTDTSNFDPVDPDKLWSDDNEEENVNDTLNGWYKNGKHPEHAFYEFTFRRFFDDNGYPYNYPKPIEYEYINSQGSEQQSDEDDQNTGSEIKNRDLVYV
In words: co-IP; Flag-LATS1 (wild type or SBC mutant) and HA-SPOP transfected into BCa cells; western blot. Background: Immunoblotting shows a protein as a band on a membrane.

Experiment [2] deals with T1, Flag-LATS1, wild type. In words: co-IP; Flag-LATS1 (wild type or SBC mutant) and HA-SPOP transfected into 293T cells; Absin Co-IP kit, lysate with antibody 4 °C 12 h, Protein A and Protein G; western blot.
In experiment [3] the target is T2, LATS1 (Large tumor suppressor kinase 1), endogenous in bladder cancer cells (human (endogenous in T24)) (UniProt O95835).
T2 sequence: T1 sequence
Nature of the experiment: co-IP; bladder cancer cells, control and circXRN2 knockdown; Absin Co-IP kit, lysate with antibody 4 °C 12 h, Protein A and Protein G.

HA-SPOP (from UniProt O43791 1-374): the binding result in the experiment with Flag-LATS1, wild type [1] is given as “binds”; with Flag-LATS1, wild type [2], “binds”.
Regarding “SPOP (speckle-type POZ, E3 ubiquitin ligase adapter), endogenous in bladder cancer cells (from UniProt O43791 1-374)”, the binding result in experiment [3] is given as “binds”.
